Results as given in US10935544B2, “Glycan arrays and method of use” (OBI Pharma, Inc., priority 2015, dated 2021).

Test system: Human IgM
Experiment: Glycan array analysis (secondary test), relative anti-glycan Human IgM, lung cancer
Assay type: binding
Conditions: categorized stages, FIG. 12D-12F

Compound | detection of lung cancer stages by immobilized array
CCCCCCCCCCCCCCCCOCC(OCCCCCCCCCCCCCCCC)C(=O)NCCCCCO[C@H]1OC(CO)[C@@H](O[C@@H]2OC(CO)[C@H](O[C@H]3OC(CO)[C@H](O)C(O[C@@H]4OC(CO)[C@H](O)C(O[C@@H]5OC(CO)[C@H](O)C(O)C5O[C@@H]5OC(C)[C@@H](O)C(O)C5O)C4NC(C)=O)C3O)C(O)C2O)C(O)C1O (some centres unmarked) [Globo H-lipid 1] | could detect Stage I, Stage II and Stage III/IV lung cancers
CCCCCCCCCCCCCCCCOC[C@@H](OCCCCCCCCCCCCCCCC)C(=O)NCCCCCO[C@@H]1O[C@H](CO)[C@@H](O[C@@H]2O[C@H](CO)[C@H](O[C@H]3O[C@H](CO)[C@H](O)[C@H](O[C@@H]4O[C@H](CO)[C@H](O)[C@H](O[C@@H]5O[C@H](CO)[C@H](O)[C@H](O[C@]6(C(=O)O)C[C@H](O)[C@@H](NC(C)=O)[C@H]([C@H](O)[C@H](O)CO)O6)[C@H]5O)[C@H]4NC(C)=O)[C@H]3O)[C@H](O)[C@H]2O)[C@H](O)[C@H]1O [SSEA-4-lipid 1] | could detect Stage I, Stage II and Stage III/IV lung cancers
